# Source: the supplement of paper PMC6411743
# Chains of the proteins cited; added tags and fusions are not shown. Lines headed by an entry give the natural chain unless they say otherwise; changes in a name come on top.
# UniProt Q96RG2: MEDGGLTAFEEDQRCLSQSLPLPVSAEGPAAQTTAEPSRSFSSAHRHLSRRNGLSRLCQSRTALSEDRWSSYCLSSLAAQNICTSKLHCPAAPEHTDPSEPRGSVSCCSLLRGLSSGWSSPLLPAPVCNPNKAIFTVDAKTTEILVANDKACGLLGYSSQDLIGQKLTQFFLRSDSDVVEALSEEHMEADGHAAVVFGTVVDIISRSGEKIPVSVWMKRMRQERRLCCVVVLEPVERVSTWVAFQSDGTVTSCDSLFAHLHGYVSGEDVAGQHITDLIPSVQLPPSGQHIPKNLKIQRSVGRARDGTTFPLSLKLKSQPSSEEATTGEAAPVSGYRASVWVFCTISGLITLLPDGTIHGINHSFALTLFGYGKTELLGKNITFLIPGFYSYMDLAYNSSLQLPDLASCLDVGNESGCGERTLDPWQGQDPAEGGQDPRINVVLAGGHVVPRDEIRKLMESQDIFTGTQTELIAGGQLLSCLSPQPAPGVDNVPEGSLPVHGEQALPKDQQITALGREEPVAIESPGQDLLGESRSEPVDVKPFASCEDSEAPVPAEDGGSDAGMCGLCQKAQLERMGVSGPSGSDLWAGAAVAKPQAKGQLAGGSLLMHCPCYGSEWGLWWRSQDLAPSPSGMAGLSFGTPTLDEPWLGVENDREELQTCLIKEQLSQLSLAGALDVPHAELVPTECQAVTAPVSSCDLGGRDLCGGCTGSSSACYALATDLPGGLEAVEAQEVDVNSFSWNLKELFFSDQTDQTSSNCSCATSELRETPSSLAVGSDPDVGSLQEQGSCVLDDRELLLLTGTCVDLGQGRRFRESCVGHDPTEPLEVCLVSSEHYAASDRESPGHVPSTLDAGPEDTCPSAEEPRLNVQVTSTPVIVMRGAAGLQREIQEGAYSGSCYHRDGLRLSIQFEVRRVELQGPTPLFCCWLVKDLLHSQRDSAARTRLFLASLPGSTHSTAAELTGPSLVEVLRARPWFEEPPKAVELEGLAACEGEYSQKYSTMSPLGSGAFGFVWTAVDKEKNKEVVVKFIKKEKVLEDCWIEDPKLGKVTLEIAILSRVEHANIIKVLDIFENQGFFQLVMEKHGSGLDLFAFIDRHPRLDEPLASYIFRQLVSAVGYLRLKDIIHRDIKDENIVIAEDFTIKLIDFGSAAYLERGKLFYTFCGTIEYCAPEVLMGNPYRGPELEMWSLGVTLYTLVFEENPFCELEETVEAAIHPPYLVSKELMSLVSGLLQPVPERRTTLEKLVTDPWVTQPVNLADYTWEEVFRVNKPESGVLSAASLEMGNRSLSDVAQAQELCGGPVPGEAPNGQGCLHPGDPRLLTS
# UniProt Q9BRG1: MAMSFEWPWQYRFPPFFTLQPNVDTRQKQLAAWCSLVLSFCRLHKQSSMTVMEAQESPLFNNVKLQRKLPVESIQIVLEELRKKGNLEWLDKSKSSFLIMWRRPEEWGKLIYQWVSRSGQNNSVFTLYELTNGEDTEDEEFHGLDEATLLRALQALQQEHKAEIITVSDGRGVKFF
# UniProt Q9BTZ2: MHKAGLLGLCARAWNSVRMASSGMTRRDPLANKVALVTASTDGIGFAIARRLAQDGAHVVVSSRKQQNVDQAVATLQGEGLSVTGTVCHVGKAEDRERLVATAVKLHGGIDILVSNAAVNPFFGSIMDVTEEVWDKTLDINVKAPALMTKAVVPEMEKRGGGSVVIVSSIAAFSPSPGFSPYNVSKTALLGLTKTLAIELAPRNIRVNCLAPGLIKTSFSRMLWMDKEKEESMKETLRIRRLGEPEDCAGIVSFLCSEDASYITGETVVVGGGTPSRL
# UniProt Q99714: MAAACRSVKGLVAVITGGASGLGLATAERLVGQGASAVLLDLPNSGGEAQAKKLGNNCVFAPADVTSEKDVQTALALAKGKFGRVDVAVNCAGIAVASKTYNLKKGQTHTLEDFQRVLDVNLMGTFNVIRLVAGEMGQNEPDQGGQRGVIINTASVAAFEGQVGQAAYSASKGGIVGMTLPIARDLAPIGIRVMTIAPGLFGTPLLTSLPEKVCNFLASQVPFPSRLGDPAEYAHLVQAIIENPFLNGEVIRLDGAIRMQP
# UniProt Q99704: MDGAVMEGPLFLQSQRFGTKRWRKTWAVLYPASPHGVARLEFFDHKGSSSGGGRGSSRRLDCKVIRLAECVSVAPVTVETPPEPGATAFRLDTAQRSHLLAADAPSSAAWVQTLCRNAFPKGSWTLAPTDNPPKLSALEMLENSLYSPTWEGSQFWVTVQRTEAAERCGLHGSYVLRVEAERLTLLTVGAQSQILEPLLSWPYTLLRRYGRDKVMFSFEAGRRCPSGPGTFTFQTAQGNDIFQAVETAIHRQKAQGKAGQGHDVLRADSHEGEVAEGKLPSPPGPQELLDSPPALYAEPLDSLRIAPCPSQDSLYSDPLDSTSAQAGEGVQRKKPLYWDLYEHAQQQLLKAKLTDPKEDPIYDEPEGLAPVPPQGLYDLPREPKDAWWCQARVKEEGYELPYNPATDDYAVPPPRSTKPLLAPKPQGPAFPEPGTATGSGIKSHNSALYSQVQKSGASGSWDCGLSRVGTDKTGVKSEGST
# UniProt Q96S52: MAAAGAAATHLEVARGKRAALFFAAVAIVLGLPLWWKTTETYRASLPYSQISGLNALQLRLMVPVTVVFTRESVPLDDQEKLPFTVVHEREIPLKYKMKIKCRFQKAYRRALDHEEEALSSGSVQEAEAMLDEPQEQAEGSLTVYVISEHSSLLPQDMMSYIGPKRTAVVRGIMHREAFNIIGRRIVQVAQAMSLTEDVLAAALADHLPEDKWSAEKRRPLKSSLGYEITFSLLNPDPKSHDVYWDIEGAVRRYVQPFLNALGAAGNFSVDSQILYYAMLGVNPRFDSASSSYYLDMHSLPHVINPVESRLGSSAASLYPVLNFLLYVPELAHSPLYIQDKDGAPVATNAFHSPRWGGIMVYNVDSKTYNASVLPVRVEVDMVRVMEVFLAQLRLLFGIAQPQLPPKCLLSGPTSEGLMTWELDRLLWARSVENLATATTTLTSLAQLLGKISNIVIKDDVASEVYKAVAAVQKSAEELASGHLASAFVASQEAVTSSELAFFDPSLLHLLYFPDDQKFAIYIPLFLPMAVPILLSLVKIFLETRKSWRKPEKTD
# UniProt Q99447: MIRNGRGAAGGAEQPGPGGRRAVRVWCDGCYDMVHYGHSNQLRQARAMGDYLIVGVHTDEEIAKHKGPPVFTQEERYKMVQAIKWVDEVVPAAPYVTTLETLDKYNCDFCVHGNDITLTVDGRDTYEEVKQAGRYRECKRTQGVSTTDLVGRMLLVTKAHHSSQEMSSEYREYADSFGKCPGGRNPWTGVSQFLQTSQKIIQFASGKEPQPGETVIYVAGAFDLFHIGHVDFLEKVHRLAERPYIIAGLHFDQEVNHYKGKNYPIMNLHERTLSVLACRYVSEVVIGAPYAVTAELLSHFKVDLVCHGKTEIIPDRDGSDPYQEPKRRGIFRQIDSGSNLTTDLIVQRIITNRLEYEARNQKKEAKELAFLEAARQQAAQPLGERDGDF
# UniProt Q96S55: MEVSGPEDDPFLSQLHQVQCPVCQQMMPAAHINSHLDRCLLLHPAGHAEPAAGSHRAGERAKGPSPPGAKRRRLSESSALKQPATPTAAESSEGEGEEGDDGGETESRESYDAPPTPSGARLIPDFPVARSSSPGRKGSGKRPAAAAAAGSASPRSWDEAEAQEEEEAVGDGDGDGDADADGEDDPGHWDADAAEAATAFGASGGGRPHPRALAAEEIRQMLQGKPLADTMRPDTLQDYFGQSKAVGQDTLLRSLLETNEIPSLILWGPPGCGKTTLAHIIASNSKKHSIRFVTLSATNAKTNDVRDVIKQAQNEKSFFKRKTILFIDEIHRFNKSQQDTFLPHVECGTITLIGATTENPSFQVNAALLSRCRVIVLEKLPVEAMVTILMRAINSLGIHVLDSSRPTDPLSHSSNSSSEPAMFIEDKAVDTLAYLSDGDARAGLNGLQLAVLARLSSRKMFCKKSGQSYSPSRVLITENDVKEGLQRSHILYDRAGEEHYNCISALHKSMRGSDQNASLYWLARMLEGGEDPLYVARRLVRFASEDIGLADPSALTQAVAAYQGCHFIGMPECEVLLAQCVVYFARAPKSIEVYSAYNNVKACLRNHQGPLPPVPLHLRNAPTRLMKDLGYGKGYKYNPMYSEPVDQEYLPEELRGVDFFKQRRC
# UniProt Q9BXR0: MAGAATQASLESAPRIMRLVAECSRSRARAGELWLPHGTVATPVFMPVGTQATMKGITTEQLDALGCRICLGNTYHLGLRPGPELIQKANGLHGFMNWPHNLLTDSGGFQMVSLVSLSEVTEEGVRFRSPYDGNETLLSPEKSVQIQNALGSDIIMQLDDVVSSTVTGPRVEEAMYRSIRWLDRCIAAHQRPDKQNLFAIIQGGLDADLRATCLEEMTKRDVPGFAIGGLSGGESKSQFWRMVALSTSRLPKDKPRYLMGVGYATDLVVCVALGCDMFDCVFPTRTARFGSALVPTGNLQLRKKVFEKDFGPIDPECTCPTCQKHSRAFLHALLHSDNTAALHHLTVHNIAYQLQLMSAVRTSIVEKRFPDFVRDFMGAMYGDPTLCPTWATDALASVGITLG
# UniProt Q9BVJ6: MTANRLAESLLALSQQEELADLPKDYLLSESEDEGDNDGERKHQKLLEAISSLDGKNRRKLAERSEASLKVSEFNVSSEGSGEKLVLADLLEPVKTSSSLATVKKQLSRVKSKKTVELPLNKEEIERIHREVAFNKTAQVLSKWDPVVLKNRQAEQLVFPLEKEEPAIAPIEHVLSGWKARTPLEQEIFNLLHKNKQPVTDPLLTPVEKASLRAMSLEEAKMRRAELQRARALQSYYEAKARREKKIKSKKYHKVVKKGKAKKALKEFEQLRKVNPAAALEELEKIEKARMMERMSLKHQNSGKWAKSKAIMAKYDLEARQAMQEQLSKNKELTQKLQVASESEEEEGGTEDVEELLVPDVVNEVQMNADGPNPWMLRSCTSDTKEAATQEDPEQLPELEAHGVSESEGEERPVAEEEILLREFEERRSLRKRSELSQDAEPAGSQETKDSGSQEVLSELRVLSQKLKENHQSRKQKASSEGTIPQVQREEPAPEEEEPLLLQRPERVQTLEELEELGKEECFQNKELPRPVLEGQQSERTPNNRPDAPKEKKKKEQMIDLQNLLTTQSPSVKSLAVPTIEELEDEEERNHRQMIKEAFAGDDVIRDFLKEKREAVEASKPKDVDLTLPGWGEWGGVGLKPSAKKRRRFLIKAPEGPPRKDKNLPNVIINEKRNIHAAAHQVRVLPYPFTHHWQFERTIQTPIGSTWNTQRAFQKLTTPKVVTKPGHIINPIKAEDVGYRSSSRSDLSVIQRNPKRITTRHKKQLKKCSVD
# UniProt Q96ST3: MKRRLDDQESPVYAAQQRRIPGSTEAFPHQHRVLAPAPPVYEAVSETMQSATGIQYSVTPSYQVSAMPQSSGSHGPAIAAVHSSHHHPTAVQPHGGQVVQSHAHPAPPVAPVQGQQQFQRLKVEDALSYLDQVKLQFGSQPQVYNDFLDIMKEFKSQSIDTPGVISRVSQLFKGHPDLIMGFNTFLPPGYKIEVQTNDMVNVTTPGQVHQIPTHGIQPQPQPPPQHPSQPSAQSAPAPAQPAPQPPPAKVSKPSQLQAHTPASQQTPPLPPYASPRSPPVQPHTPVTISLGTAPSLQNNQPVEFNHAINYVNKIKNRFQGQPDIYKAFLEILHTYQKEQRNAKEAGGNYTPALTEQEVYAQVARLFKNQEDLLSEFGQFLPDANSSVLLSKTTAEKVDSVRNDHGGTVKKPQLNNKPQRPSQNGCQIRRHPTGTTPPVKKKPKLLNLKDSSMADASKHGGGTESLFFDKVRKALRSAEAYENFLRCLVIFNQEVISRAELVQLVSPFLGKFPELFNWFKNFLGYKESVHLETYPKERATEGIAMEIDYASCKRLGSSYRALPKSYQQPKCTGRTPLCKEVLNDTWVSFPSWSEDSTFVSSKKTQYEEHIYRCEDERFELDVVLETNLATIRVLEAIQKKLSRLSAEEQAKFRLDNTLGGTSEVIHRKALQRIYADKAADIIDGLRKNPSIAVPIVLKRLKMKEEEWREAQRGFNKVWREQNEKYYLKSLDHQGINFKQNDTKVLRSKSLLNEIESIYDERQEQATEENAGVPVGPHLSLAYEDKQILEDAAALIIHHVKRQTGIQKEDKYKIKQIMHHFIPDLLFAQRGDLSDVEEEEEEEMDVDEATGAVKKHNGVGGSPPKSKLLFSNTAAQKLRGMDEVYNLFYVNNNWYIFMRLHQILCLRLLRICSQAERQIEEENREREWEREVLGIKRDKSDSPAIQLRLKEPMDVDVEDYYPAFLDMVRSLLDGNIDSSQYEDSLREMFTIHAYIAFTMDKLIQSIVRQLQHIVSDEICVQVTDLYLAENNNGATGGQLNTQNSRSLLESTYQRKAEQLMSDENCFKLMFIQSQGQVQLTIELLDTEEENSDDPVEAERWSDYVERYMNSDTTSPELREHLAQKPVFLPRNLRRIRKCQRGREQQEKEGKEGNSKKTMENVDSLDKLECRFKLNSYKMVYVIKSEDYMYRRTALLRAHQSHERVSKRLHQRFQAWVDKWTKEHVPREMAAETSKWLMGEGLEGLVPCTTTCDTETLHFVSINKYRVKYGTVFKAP
# ± gives the standard deviation of the averaged measurements. The list shows a part of the results, in another mix than the full data. Most values lie at the level of the controls, where differences are scatter.
# Compound: Nc1ncnc2c1ncn2[C@@H]1O[C@H](COP(=O)(O)OP(=O)(O)NP(=O)(O)O)[C@@H](O)[C@H]1O [adenylyl imidodiphosphate]
# Experiment: NP40-soluble protein abundance relative to vehicle (solubility fold change) (ratio); higher = more soluble protein in presence of AMP-PNP
# Procedure, shortened: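 Crude Jurkat lysate, prepared by Dounce homogenisation, was exposed to eight concentrations from 0.1 to 10 mM for 10 min at room temperature and then 3 min at 37 °C. Solubilisation used 0.8% NP40 with benzonase for 60 min at 4 °C, followed by ultracentrifugation and TMT labelling of the supernatant for LC-MS/MS. After vsn normalisation of intensities, each value is the fold change against the detergent-processed vehicle within each replicate, across three independent experiments.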
Target,NP40-soluble protein abundance (concentration: 0.1mM),NP40-soluble protein abundance (concentration: 0.5mM)
TSNAX (UniProt Q99598),0.996 ± 0.012,0.999 ± 0.018
SPAG5 (UniProt Q96R06),0.981 ± 0.01,0.9848 ± 0.0033
CABLES2 (UniProt Q9BTV7),0.998 ± 0.014,1.001 ± 0.0073
UniProt Q96RG2 and related entries,0.994 ± 0.011,0.98 ± 0.018
UniProt Q9BRG1 and related entries,1.06 ± 0.011,1.05 ± 0.018
UniProt Q9BQI3 and related entries,1.012 ± 0.003,0.992 ± 0.021
DHRS4 (UniProt Q9BTZ2),0.9854 ± 0.0067,0.974 ± 0.037
HSD17B10 (UniProt Q99714),1 ± 0.027,1.04 ± 0.041
DOK1 (UniProt Q99704),1.02 ± 0.021,1 ± 0.018
PIGS (UniProt Q96S52),0.973 ± 0.031,0.97 ± 0.062
NEU1 (UniProt Q99519),0.991 ± 0.021,1.03 ± 0.018
UniProt Q9BSW2-2,1.01 ± 0.029,1 ± 0.057
NACC1 (UniProt Q96RE7),0.996 ± 0.011,0.99 ± 0.042
RNF2 (UniProt Q99496),1.02 ± 0.031,1.04 ± 0.038
UniProt Q99871 and related entries,0.948 ± 0.015,0.9717 ± 0.0088
UniProt Q9BWF3 and related entries,1 ± 0.026,1.03 ± 0.076
MAK16 (UniProt Q9BXY0),0.989 ± 0.036,1.01 ± 0.011
MRPL9 (UniProt Q9BYD2),1.11 ± 0.014,1.05 ± 0.042
UniProt Q9BU61 and related entries,1.02 ± 0.021,0.993 ± 0.043
GINS4 (UniProt Q9BRT9),0.943 ± 0.065,0.921 ± 0.057

Target,NP40-soluble protein abundance (concentration: 0.1mM),NP40-soluble protein abundance (concentration: 0.5mM)
UniProt Q96ST2 and related entries,0.98 ± 0.055,1 ± 0.05
PIK3R4 (UniProt Q99570),0.967 ± 0.049,0.965 ± 0.053
UniProt Q9BQ39 and related entries,1.08 ± 0.031,1.15 ± 0.033
UniProt Q9BQ52 and related entries,1.01 ± 0.01,0.9986 ± 0.0086
GINS3 (UniProt Q9BRX5),0.99 ± 0.02,0.975 ± 0.0098
ARID3A (UniProt Q99856),0.971 ± 0.025,0.983 ± 0.029
UniProt Q9BZ95 and related entries,1.04 ± 0.03,1.02 ± 0.05
UniProt Q99640 and related entries,0.983 ± 0.012,0.974 ± 0.029
UniProt Q99447 and related entries,1.01 ± 0.059,0.96 ± 0.08
UniProt Q9BRJ7 and related entries,1.01 ± 0.046,0.995 ± 0.041
BDH2 (UniProt Q9BUT1),0.9931 ± 0.0096,0.988 ± 0.021
UniProt Q99719 and related entries,1.06 ± 0.067,1.08 ± 0.073
NUP85 (UniProt Q9BW27),1.07 ± 0.018,0.993 ± 0.072
UniProt Q96T51 and related entries,0.996 ± 0.05,0.98 ± 0.054
DPH2 (UniProt Q9BQC3),1.03 ± 0.019,1.01 ± 0.036
DCTN5 (UniProt Q9BTE1),1.027 ± 0.0031,0.993 ± 0.028
UniProt Q9BY12 and related entries,1.03 ± 0.045,1.01 ± 0.043
UniProt Q96S55 and related entries,1.04 ± 0.055,0.998 ± 0.051
QTRT1 (UniProt Q9BXR0),1.04 ± 0.029,0.991 ± 0.041
SPATA5L1 (UniProt Q9BVQ7),1.022 ± 0.0079,1.03 ± 0.019

# Full records, quoted from the list:
# UniProt Q99640 and related entries is entered as NP40-soluble protein abundance (concentration: 0.1mM): 0.983 ± 0.012; NP40-soluble protein abundance (concentration: 0.5mM): 0.974 ± 0.029
# DPH2 (UniProt Q9BQC3) is entered as NP40-soluble protein abundance (concentration: 0.1mM): 1.03 ± 0.019; NP40-soluble protein abundance (concentration: 0.5mM): 1.01 ± 0.036
# PIK3R4 (UniProt Q99570) is entered as NP40-soluble protein abundance (concentration: 0.1mM): 0.967 ± 0.049; NP40-soluble protein abundance (concentration: 0.5mM): 0.965 ± 0.053
# UniProt Q99447 and related entries is entered as NP40-soluble protein abundance (concentration: 0.1mM): 1.01 ± 0.059; NP40-soluble protein abundance (concentration: 0.5mM): 0.96 ± 0.08

# (continued)

Target,NP40-soluble protein abundance (concentration: 0.1mM),NP40-soluble protein abundance (concentration: 0.5mM)
UniProt Q96RF0-2,1.013 ± 0.0017,1.02 ± 0.023
UniProt Q9BRR6 and related entries,1.04 ± 0.062,1 ± 0.082
UniProt Q9BV73 and related entries,1 ± 0.031,0.982 ± 0.025
UTP14A (UniProt Q9BVJ6),1.016 ± 0.0076,1.04 ± 0.03
UniProt Q9BSI4 and related entries,1.03 ± 0.029,1.03 ± 0.039
UniProt Q9BYG3,1.02 ± 0.05,1.03 ± 0.016
SRXN1 (UniProt Q9BYN0),1.05 ± 0.036,1.04 ± 0.022
UniProt Q9BYT3 and related entries,0.969 ± 0.027,1 ± 0.02
UniProt Q9BPZ3 and related entries,0.986 ± 0.034,0.989 ± 0.038
UniProt Q99733 and related entries,1.01 ± 0.021,1.04 ± 0.082
KLF16 (UniProt Q9BXK1),1.01 ± 0.033,1.02 ± 0.031
UniProt Q99707 and related entries,1 ± 0.012,0.967 ± 0.037
UniProt Q9BXW7 and related entries,1.05 ± 0.021,0.989 ± 0.073
UniProt Q9BXM9 and related entries,0.982 ± 0.053,1.03 ± 0.031
SIN3A (UniProt Q96ST3),1 ± 0.016,0.975 ± 0.036
UniProt Q9BW83 and related entries,1.008 ± 0.0035,0.999 ± 0.05
ITPA (UniProt Q9BY32),1 ± 0.083,1.04 ± 0.081
NUF2 (UniProt Q9BZD4),0.972 ± 0.023,1.01 ± 0.07
